The whole screen tested about 340,000 compounds, of which about 170 (0.05%) were called active. The inconclusive results got no clear call from the source; some entries with a clear call stand among them for comparison. The call rests on the fitted dose curve; in most records, active means well fitted inhibition curve with a large enough effect in the signal ratio, with a control signal flat (not every such curve was filed as active); inconclusive means small, poorly fitted or top-dose-only effect, or effect the other way, or a change in a side signal; inactive means flat fitted curve, though single readings scatter; the % refers to the signal ratio. Where the call is inconclusive, the potency comes from a doubtful curve fit.
experiment: qHTS Assay to Find Inhibitors of Chronic Active B-Cell Receptor Signaling; conditions: ABC-DLBCL IkBa-CBG/CBR reporter, luminescence ratio (green luciferase fused to IkBa over red control in TMD8 lymphoma cells), 4 h; activity change, negative = inhibition: at 46.1 µM (top of the series) unless noted;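 on activity change, negative = inhibition: plate controls were basal doxycycline-induced cells for no effect and cells given 10 µM MG132 for full effect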
How it was run: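 TMD8 human ABC-DLBCL cells with doxycycline-inducible IκBα–green luciferase fusion and unfused red luciferase, in 0.5% FBS medium; compounds up to 46 uM, 4 h at 37C. Green/red luminescence ratio, filter-overlap corrected, fitted to concentration-response curves.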
Potency means the concentration at half of the fitted maximal effect.

| SMILES | Potency | activity change, negative = inhibition |
| --- | --- | --- |
| Cc1cc(NC(=O)c2cc(-c3ccc(C)s3)nc3ccccc23)no1 | inconclusive: 32.6 µM [falling, single point] | – |
| Cc1ccccc1CNC(=O)C(=O)NCC1CCCN1S(=O)(=O)c1cccs1 (stereo unspecified) | inconclusive: 29.1 µM [falling, single point] | – |
| COc1ccccc1/C=N/Nc1cc(C)nc(N2CCOCC2)n1 | inconclusive: 12.6 µM [falling, partial curve] | – |
| CC(C)(C)C(=O)CSc1nc2ccsc2c(=O)n1Cc1ccccc1Cl | – | inactive: 0.214% |
| O=C(NCCc1ccccc1)Nc1ccc(Cl)cc1 | – | inconclusive: -7.26% |
| CSc1nc(N)nc(SCC(=O)OC(C)C)c1C#N | – | inconclusive: -1.41% |
| COc1cc(/C=N/NC(=O)c2nnn(-c3nonc3N)c2C(C)C)ccc1OCc1ccc(F)cc1 | inconclusive: 14.1 µM [activator, partial curve, poor fit] | – |
| O=C(CNC(=O)c1ccc(C(F)(F)F)cc1)NC1CC1 | – | inconclusive: 0.131% |
| Cn1c(=O)[nH]c(NC2CCCCC2)c([N+](=O)[O-])c1=O | – | inconclusive: 0.607% |
| O=C(Nc1ccccc1C(=O)NCC1CCCO1)c1ccccc1 (stereo unspecified) | inconclusive: 10 µM [falling, partial curve] | – |
| O=C(NCCCSc1ccccc1)c1cnc(Cl)c(Cl)c1 | – | inactive: 11.3% |
| O=c1c(Cl)c(Cl)cnn1Cc1nnc(-c2ccccc2Br)o1 | inconclusive: 22.4 µM [rising, partial curve, poor fit] | – |
| COc1ccc(/C=C2/CCc3ccccc3C2=O)cc1CN1CCOCC1 | – | inactive: -15.3% |
| Cc1ccc(C(=O)N/N=C/c2ccc(-c3ccc(Br)cc3[N+](=O)[O-])o2)o1 | – | inactive: -3.15% |
| Cc1cc(Cl)ccc1N(CC(=O)N=Nc1c(O)[nH]c2ccccc12)S(C)(=O)=O | – | inconclusive: -35% |
| Cc1c(C(=O)N2CCCC2)sc(NC(=O)c2ccccc2)c1C#N | – | inconclusive: -2.73% |
| Cn1c(NNC(=O)c2c(F)cccc2F)cc(=O)n(C)c1=O | – | inconclusive: -20.9% |
| COc1ccc(-c2nn(-c3ccccc3)cc2/C=C/C(=O)N2CCOCC2)cc1OC | inconclusive: 11.2 µM [falling, partial curve] | – |
| Clc1ccc(COc2ccccc2-c2ccnc3ncnn23)cc1 | – | inconclusive: -23.8% |
| CC(=O)c1cccc(NC(=O)C2CCCN(S(=O)(=O)c3ccc(F)cc3)C2)c1 (stereo unspecified) | inconclusive: 16.4 µM [falling, single point] | – |
| COc1ccccc1NS(=O)(=O)c1cc(NC(=O)c2cccs2)ccc1N1CCCC1 | – | inconclusive: 11.4% |

Record cards, as listed above. Values in the order: Potency	activity change, negative = inhibition
`CSc1nc(N)nc(SCC(=O)OC(C)C)c1C#N` is listed with –	inconclusive: -1.41%
`O=C(NCCCSc1ccccc1)c1cnc(Cl)c(Cl)c1` is listed with –	inactive: 11.3%
